Assay results as given in publication PMC6632053, “Incorporation of Putative Helix-Breaking Amino Acids in the Design of Novel Stapled Peptides: Exploring Biophysical and Cellular Permeability Properties” (Molecules, 2019).
Bridge positions count the residues as written; N and C are the ends. Square brackets hold non-standard residues; d marks the D form. Peptide text beside a SMILES is read from it. Lys(N3) = [N-]=[N+]=NCCCC[C@H](N)C(=O)O; R8 = C=CCCCCCC[C@@](C)(N)C(=O)O; Cba = N[C@@H](CC1CCC1)C(=O)O; S5 = C=CCCC[C@](C)(N)C(=O)O; Aib = CC(C)(N)C(=O)O; βAla = NCCC(=O)O

Tested on: p53 responsive β-lactamase reporter in HCT116 cells
Experiment: p53 beta-lactamase reporter gene cellular functional assay
Format: cell-based
Details: cellular EC50/Mdm2 Kd
Experimental: HCT116 cells were stably transfected with a p53 responsive β-lactamase reporter and were seeded into a 384-well plate at a density of 8000 cells per well. Cells were maintained in McCoy’s 5A Medium with 10% fetal bovine serum (FBS), Blasticidin, and Penicillin/Streptomycin. The cells were incubated overnight, followed by removal of cell growth media and replacement with Opti-MEM either containing 0% FBS or 10% FBS. […] The final working concentration of DMSO was 0.5%. β-lactamase activity was detected using the ToxBLAzer Dual Screen (Invitrogen), as per the manufacturer’s instructions. Measurements were made using the Envision multiplate reader (Perkin–Elmer).

In the case of CC(=O)N[C@@H](CCCCN=[N+]=[N-])C(=O)NCCC(=O)N[C@@H](CC(C)C)C(=O)N[C@H](C(=O)N[C@@H](Cc1ccccc1)C(=O)N[C@]1(C)CCCCCCC=CCCC[C@@](C)(C(=O)N[C@@H](CO)C(=O)N[C@@H](C)C(=O)N[C@@H](C)C(N)=O)NC(=O)[C@H](CC2CCC2)NC(=O)[C@H](CCC(N)=O)NC(=O)[C@H](C)N(C)C(=O)[C@H](Cc2c[nH]c3ccccc23)NC(=O)[C@H](Cc2ccc(O)cc2)NC(=O)[C@H](CCC(=O)O)NC1=O)[C@@H](C)O [A8(N-methyl L-Ala)], the “Ratio (fold-shift between the binding affinity and cellular activity)” value (Table 2) was over 75.
CC(=O)N[C@@H](CCCCN=[N+]=[N-])C(=O)NCCC(=O)N[C@@H](CC(C)C)C(=O)N[C@H](C(=O)N[C@@H](Cc1ccccc1)C(=O)N[C@]1(C)CCCCCCC=CCCC[C@@](C)(C(=O)N[C@@H](C)C(=O)NC(C)(C)C(=O)N[C@@H](C)C(N)=O)NC(=O)[C@H](CC2CCC2)NC(=O)[C@H](CCC(N)=O)NC(=O)[C@H](C)NC(=O)[C@H](Cc2c[nH]c3ccccc23)NC(=O)[C@H](Cc2ccc(O)cc2)NC(=O)[C@H](CCC(=O)O)NC1=O)[C@@H](C)O [A13(Aib)] (Ac-[Lys(N3)][βAla]LTF[R8]EYWAQ[Cba][S5]A[Aib]A-NH2; staple 6-13) was tested, and the “Ratio (fold-shift between the binding affinity and cellular activity)” value (Table 2) was 23.
With CC(=O)N[C@@H](CCCCN=[N+]=[N-])C(=O)NCCC(=O)N[C@@H](CC(C)C)C(=O)N[C@H](C(=O)N[C@@H](Cc1ccccc1)C(=O)N[C@]1(C)CCCCCCC=CCCC[C@@](C)(C(=O)N[C@@H](CO)C(=O)N(C)[C@@H](C)C(=O)N[C@@H](C)C(N)=O)NC(=O)[C@H](CC2CCC2)NC(=O)[C@H](CCC(N)=O)NC(=O)[C@H](C)NC(=O)[C@H](Cc2c[nH]c3ccccc23)NC(=O)[C@H](Cc2ccc(O)cc2)NC(=O)[C@H](CCC(=O)O)NC1=O)[C@@H](C)O [A13(N-methyl L-Ala)] the “Ratio (fold-shift between the binding affinity and cellular activity)” value (Table 2) was 158.
CC(=O)N[C@@H](CCCCN=[N+]=[N-])C(=O)NCCC(=O)NCC(=O)N[C@H](C(=O)N[C@@H](Cc1ccccc1)C(=O)N[C@]1(C)CCCCCCC=CCCC[C@@](C)(C(=O)N[C@@H](CO)C(=O)N[C@@H](C)C(=O)N[C@@H](C)C(N)=O)NC(=O)[C@H](CC2CCC2)NC(=O)[C@H](CCC(N)=O)NC(=O)CNC(=O)[C@H](Cc2c[nH]c3ccccc23)NC(=O)[C@H](Cc2ccc(O)cc2)NC(=O)CNC1=O)[C@@H](C)O [L1G, E5G, A8G] (Ac-[Lys(N3)][βAla]GTF[R8]GYWGQ[Cba][S5]SAA-NH2; staple 6-13) was tested, and the “Ratio (fold-shift between the binding affinity and cellular activity)” value (Table 2) was 34.
With CC(=O)N[C@@H](CC(C)C)C(=O)N[C@H](C(=O)N[C@@H](Cc1ccccc1)C(=O)NC(C)(C)C(=O)N[C@H](CCC(=O)O)C(=O)N[C@@H](Cc1ccc(O)cc1)C(=O)N[C@@H](Cc1c[nH]c2ccccc12)C(=O)N[C@@H](CCC(N)=O)C(=O)N[C@@H](CC(C)C)C(=O)N[C@@H](CC1CCC1)C(=O)NC(C)(C)C(=O)N[C@@H](CO)C(=O)N[C@@H](C)C(=O)N[C@@H](C)C(N)=O)[C@@H](C)O [Linear E5(D-Glu)] the “Ratio (fold-shift between the binding affinity and cellular activity)” value (Table 1) was over 370.
With CC(=O)N[C@H](CC(C)C)C(=O)N[C@H](C(=O)N[C@@H](Cc1ccccc1)C(=O)NC(C)(C)C(=O)N[C@@H](CCC(=O)O)C(=O)N[C@@H](Cc1ccc(O)cc1)C(=O)N[C@@H](Cc1c[nH]c2ccccc12)C(=O)N[C@@H](CCC(N)=O)C(=O)N[C@@H](CC(C)C)C(=O)N[C@@H](CC1CCC1)C(=O)NC(C)(C)C(=O)N[C@@H](CO)C(=O)N[C@@H](C)C(=O)N[C@@H](C)C(N)=O)[C@@H](C)O [Linear L1(D-Leu)] the “Ratio (fold-shift between the binding affinity and cellular activity)” value (Table 1) was over 180.
CC(=O)N[C@@H](CC(C)C)C(=O)N[C@H](C(=O)N[C@@H](Cc1ccccc1)C(=O)NC(C)(C)C(=O)N[C@@H](CCC(=O)O)C(=O)N[C@@H](Cc1ccc(O)cc1)C(=O)N[C@@H](Cc1c[nH]c2ccccc12)C(=O)N[C@@H](CCC(N)=O)C(=O)N[C@H](CC(C)C)C(=O)N[C@@H](CC1CCC1)C(=O)NC(C)(C)C(=O)N[C@@H](CO)C(=O)N[C@@H](C)C(=O)N[C@@H](C)C(N)=O)[C@@H](C)O [Linear L9(D-Leu)] was tested, and the “Ratio (fold-shift between the binding affinity and cellular activity)” value (Table 1) was over 568.
In the case of CC(=O)N[C@@H](CC(C)C)C(=O)N[C@H](C(=O)N[C@@H](Cc1ccccc1)C(=O)NC(C)(C)C(=O)N[C@@H](CCC(=O)O)C(=O)N[C@@H](Cc1ccc(O)cc1)C(=O)N[C@@H](Cc1c[nH]c2ccccc12)C(=O)N[C@@H](CCC(N)=O)C(=O)N[C@@H](CC(C)C)C(=O)N[C@@H](CC1CCC1)C(=O)NC(C)(C)C(=O)N[C@@H](CO)C(=O)N[C@@H](C)C(=O)N[C@@H](C)C(N)=O)[C@@H](C)O [Linear Parent (MP-189), Ac–Leu–Thr–Phe–Aib–Glu–Tyr–Trp–Gln–Leu–Cba–Aib–Ser–Ala–Ala–NH2], the “Ratio (fold-shift between the binding affinity and cellular activity)” value (Table 1) was 777.
In the case of CC(=O)N[C@@H](CC(C)C)C(=O)N[C@H](C(=O)N[C@@H](Cc1ccccc1)C(=O)N[C@]1(C)CCCCCCC=CCCC[C@@](C)(C(=O)N[C@@H](CO)C(=O)N[C@@H](C)C(=O)N[C@@H](C)C(N)=O)NC(=O)[C@H](CC2CCC2)NC(=O)[C@H](CC(C)C)NC(=O)[C@H](CCC(N)=O)NC(=O)[C@H](Cc2c[nH]c3ccccc23)NC(=O)[C@H](Cc2ccc(O)cc2)NC(=O)[C@H](C)NC1=O)[C@@H](C)O [Peptide E5A] (Ac-LTF[R8]AYWQL[Cba][S5]SAA-NH2; staple 4-11), the “Ratio (fold-shift between the binding affinity and cellular activity)” value (Table 1) was 6.
CC(=O)N[C@@H](CCCCN=[N+]=[N-])C(=O)NCCC(=O)N[C@@H](CC(C)C)C(=O)N[C@H](C(=O)N[C@@H](Cc1ccccc1)C(=O)N[C@]1(C)CCCCCCC=CCCC[C@@](C)(C(=O)N[C@@H](CO)C(=O)N[C@@H](C)C(=O)N[C@@H](C)C(N)=O)NC(=O)[C@H](CC2CCC2)NC(=O)[C@H](CCC(N)=O)NC(=O)[C@H](C)NC(=O)[C@H](Cc2c[nH]c3ccccc23)NC(=O)[C@H](Cc2ccc(O)cc2)NC(=O)CNC1=O)[C@@H](C)O [Peptide E5G] was tested, and the “Ratio (fold-shift between the binding affinity and cellular activity)” value (Table 2) was 4.
CC(=O)N[C@@H](CC(C)C)C(=O)N[C@H](C(=O)N[C@@H](C)C(=O)N[C@]1(C)CCCCCCC=CCCC[C@@](C)(C(=O)N[C@@H](CO)C(=O)N[C@@H](C)C(=O)N[C@@H](C)C(N)=O)NC(=O)[C@H](CC2CCC2)NC(=O)[C@H](CC(C)C)NC(=O)[C@H](CCC(N)=O)NC(=O)[C@H](Cc2c[nH]c3ccccc23)NC(=O)[C@H](Cc2ccc(O)cc2)NC(=O)[C@H](CCC(=O)O)NC1=O)[C@@H](C)O [Peptide F3A] (Ac-LTA[R8]EYWQL[Cba][S5]SAA-NH2; staple 4-11) was tested, and the “Ratio (fold-shift between the binding affinity and cellular activity)” value (Table 1) was 10.
For CC(=O)N[C@@H](C)C(=O)N[C@H](C(=O)N[C@@H](Cc1ccccc1)C(=O)N[C@]1(C)CCCCCCC=CCCC[C@@](C)(C(=O)N[C@@H](CO)C(=O)N[C@@H](C)C(=O)N[C@@H](C)C(N)=O)NC(=O)[C@H](CC2CCC2)NC(=O)[C@H](CC(C)C)NC(=O)[C@H](CCC(N)=O)NC(=O)[C@H](Cc2c[nH]c3ccccc23)NC(=O)[C@H](Cc2ccc(O)cc2)NC(=O)[C@H](CCC(=O)O)NC1=O)[C@@H](C)O [Peptide L1A] (Ac-ATF[R8]EYWQL[Cba][S5]SAA-NH2; staple 4-11), the “Ratio (fold-shift between the binding affinity and cellular activity)” value (Table 1) was 28.
CC(=O)N[C@@H](CCCCN=[N+]=[N-])C(=O)NCCC(=O)NCC(=O)N[C@H](C(=O)N[C@@H](Cc1ccccc1)C(=O)N[C@]1(C)CCCCCCC=CCCC[C@@](C)(C(=O)N[C@@H](CO)C(=O)N[C@@H](C)C(=O)N[C@@H](C)C(N)=O)NC(=O)[C@H](CC2CCC2)NC(=O)[C@H](CCC(N)=O)NC(=O)[C@H](C)NC(=O)[C@H](Cc2c[nH]c3ccccc23)NC(=O)[C@H](Cc2ccc(O)cc2)NC(=O)[C@H](CCC(=O)O)NC1=O)[C@@H](C)O [Peptide L1G] was tested, and the “Ratio (fold-shift between the binding affinity and cellular activity)” value (Table 2) was 73.
For CC(=O)N[C@@H](CCCCN=[N+]=[N-])C(=O)NCCC(=O)N1CCC[C@H]1C(=O)N[C@H](C(=O)N[C@@H](Cc1ccccc1)C(=O)N[C@]1(C)CCCCCCC=CCCC[C@@](C)(C(=O)N[C@@H](CO)C(=O)N[C@@H](C)C(=O)N[C@@H](C)C(N)=O)NC(=O)[C@H](CC2CCC2)NC(=O)[C@H](CCC(N)=O)NC(=O)[C@H](C)NC(=O)[C@H](Cc2c[nH]c3ccccc23)NC(=O)[C@H](Cc2ccc(O)cc2)NC(=O)[C@H](CCC(=O)O)NC1=O)[C@@H](C)O [Peptide L1P], the “Ratio (fold-shift between the binding affinity and cellular activity)” value (Table 2) was 34.
With CC(=O)N[C@@H](CC(C)C)C(=O)N[C@H](C(=O)N[C@@H](Cc1ccccc1)C(=O)N[C@]1(C)CCCCCCC=CCCC[C@@](C)(C(=O)N[C@@H](CO)C(=O)N[C@@H](C)C(=O)N[C@@H](C)C(N)=O)NC(=O)[C@H](CC2CCC2)NC(=O)[C@H](C)NC(=O)[C@H](CCC(N)=O)NC(=O)[C@H](Cc2c[nH]c3ccccc23)NC(=O)[C@H](Cc2ccc(O)cc2)NC(=O)[C@H](CCC(=O)O)NC1=O)[C@@H](C)O [Peptide L9A] (Ac-LTF[R8]EYWQA[Cba][S5]SAA-NH2; staple 4-11) the “Ratio (fold-shift between the binding affinity and cellular activity)” value (Table 1) was 13.
In the case of CC(=O)N[C@@H](CC(C)C)C(=O)N[C@H](C(=O)N[C@@H](Cc1ccccc1)C(=O)N[C@]1(C)CCCCCCC=CCCC[C@@](C)(C(=O)N[C@@H](CO)C(=O)N[C@@H](C)C(=O)N[C@@H](C)C(N)=O)NC(=O)[C@H](CC2CCC2)NC(=O)[C@H](CC(C)C)NC(=O)[C@H](C)NC(=O)[C@H](Cc2c[nH]c3ccccc23)NC(=O)[C@H](Cc2ccc(O)cc2)NC(=O)[C@H](CCC(=O)O)NC1=O)[C@@H](C)O [Peptide Q8A], the “Ratio (fold-shift between the binding affinity and cellular activity)” value (Table 1) was 4.
With CC(=O)N[C@@H](CCCCN=[N+]=[N-])C(=O)NCCC(=O)N[C@@H](CC(C)C)C(=O)N[C@H](C(=O)N[C@@H](Cc1ccccc1)C(=O)N[C@]1(C)CCCCCCC=CCCC[C@@](C)(C(=O)N[C@@H](CO)C(=O)N[C@@H](C)C(=O)N[C@@H](C)C(N)=O)NC(=O)[C@H](CC2CCC2)NC(=O)CNC(=O)[C@H](C)NC(=O)[C@H](Cc2c[nH]c3ccccc23)NC(=O)[C@H](Cc2ccc(O)cc2)NC(=O)[C@H](CCC(=O)O)NC1=O)[C@@H](C)O [Peptide Q9G] the “Ratio (fold-shift between the binding affinity and cellular activity)” value (Table 2) was 16.
